Data as given in patent US20110171242A1.
No constants are given. Whether binding was seen depends on the method and setting. Some binding calls cover weakened binding; strength is not graded here.

Sequences of proteins named here, by UniProt entry; tags and fusion partners are left off. Residues count along the entry.
UniProt P19438, residues 30-211: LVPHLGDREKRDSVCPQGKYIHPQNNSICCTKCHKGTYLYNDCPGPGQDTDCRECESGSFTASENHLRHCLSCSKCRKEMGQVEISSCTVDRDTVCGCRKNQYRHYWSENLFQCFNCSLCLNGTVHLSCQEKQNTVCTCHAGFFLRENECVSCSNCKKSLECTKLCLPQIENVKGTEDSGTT

How the values were obtained:
LTα homotrimer [1] = molecular target: T1, LTα homotrimer (UniProt P01374); assay: 2D electrophoresis of proteins bound to TNFR60:Fc
T1 sequence (looked up): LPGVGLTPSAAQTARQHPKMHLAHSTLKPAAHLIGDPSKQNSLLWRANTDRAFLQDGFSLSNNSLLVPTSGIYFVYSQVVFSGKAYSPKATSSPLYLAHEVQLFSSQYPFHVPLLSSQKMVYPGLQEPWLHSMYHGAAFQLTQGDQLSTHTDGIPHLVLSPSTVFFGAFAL

LTα homotrimer [2] = molecular target: T1, LTα homotrimer; assay: precipitation of 35S-labelled proteins with receptor:Fc and protein G, SDS-PAGE
LTα homotrimer [3] = molecular target: T1, LTα homotrimer; assay: affinity purification from 35S-labelled II-23.D7 extract, 2D electrophoresis
LTα homotrimer [4] = molecular target: T1, LTα homotrimer; assay: successive TNFR60:Fc and HVEM:Fc affinity steps

binding (LTα homotrimer [1]): binds | binding (LTα homotrimer [2]): binds | binding (LTα homotrimer [3]): binds | binding (LTα homotrimer [4]): binds
Substance: TNFR60:Fc (from UniProt P19438 30-211) (Fc fusion)
